Results taken from the supplement of paper PMC12819154, “High-throughput peptide-centric local stability assay extends protein–ligand identification to membrane proteins, tissues and bacteria” (Nature Structural & Molecular Biology, 2025).
Some of the results follow. Small differences around the control level are noise.

Amino acid sequences for entries named in this document (tags omitted). A change or cut given only in a name is not applied to a line headed by its entry.
UniProt Q64727: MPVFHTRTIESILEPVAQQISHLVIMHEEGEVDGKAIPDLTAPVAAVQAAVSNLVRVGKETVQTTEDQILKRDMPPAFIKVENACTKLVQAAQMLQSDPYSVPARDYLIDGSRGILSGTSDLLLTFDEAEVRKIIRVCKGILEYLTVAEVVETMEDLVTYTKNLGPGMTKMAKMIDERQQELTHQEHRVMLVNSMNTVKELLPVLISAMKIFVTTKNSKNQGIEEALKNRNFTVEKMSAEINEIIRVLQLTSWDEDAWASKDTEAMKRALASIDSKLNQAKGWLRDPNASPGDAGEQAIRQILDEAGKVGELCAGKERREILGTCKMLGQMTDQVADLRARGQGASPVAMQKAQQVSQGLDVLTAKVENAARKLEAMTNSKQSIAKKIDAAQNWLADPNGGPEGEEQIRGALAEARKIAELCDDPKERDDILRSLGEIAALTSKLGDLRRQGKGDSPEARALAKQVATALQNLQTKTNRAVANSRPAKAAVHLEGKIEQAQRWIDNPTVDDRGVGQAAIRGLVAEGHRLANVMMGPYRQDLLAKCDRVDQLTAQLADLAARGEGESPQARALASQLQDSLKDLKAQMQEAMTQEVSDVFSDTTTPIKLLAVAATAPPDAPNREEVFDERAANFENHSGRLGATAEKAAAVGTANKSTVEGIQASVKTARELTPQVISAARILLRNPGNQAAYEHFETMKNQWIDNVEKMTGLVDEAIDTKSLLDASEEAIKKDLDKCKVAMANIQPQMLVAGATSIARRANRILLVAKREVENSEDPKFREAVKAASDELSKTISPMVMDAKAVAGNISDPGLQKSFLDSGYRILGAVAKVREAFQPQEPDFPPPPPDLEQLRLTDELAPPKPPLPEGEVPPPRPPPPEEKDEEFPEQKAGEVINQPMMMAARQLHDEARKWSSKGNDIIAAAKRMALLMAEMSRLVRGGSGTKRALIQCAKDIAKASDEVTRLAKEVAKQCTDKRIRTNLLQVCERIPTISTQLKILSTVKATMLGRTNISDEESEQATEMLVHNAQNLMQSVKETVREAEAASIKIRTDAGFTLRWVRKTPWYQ
UniProt Q61624: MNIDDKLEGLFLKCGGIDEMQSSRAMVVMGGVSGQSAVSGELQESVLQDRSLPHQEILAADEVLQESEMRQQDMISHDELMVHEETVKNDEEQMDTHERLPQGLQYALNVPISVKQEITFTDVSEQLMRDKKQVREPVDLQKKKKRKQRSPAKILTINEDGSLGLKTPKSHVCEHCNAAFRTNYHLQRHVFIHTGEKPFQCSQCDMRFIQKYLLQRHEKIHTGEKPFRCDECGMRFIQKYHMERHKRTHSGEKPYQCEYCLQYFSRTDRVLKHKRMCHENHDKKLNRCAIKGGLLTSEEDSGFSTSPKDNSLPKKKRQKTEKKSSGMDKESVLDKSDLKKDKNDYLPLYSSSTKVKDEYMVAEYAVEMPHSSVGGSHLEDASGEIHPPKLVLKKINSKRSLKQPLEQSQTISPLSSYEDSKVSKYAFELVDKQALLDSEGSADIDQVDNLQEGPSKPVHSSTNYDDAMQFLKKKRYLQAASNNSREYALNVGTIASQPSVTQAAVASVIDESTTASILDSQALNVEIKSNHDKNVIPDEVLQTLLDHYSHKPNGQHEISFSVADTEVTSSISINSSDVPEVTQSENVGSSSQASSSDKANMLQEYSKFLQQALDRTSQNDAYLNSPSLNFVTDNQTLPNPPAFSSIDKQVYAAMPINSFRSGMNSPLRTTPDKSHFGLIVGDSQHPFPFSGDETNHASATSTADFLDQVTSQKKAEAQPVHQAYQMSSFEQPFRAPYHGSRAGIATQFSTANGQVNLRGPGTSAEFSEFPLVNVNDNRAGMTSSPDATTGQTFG
UniProt Q66T02: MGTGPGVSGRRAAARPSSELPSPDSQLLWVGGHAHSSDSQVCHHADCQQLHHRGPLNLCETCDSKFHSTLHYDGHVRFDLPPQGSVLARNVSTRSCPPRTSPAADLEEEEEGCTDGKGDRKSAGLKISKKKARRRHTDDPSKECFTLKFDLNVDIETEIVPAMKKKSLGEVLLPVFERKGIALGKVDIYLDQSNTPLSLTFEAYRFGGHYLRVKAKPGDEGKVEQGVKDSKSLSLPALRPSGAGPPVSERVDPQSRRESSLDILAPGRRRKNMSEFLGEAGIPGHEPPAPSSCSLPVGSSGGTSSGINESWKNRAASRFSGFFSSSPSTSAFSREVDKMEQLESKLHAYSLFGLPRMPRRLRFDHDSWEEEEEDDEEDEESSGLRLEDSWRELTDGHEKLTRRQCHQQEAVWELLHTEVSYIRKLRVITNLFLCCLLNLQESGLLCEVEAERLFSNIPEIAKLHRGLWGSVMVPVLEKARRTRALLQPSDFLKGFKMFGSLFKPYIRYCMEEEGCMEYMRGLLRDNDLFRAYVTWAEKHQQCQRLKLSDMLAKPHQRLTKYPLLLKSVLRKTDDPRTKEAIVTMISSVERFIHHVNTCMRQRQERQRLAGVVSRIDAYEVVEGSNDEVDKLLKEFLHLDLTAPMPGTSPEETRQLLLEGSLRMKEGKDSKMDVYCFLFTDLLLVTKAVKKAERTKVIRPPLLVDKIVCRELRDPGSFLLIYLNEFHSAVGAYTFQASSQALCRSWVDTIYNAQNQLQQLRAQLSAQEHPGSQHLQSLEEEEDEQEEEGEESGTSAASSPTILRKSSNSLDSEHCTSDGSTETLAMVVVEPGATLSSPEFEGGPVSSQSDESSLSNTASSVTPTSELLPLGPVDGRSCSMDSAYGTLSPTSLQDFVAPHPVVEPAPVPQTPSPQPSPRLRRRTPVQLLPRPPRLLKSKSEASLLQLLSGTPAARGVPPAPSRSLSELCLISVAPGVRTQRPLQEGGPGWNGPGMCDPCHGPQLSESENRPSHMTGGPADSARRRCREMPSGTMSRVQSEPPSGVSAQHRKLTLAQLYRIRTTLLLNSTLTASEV
UniProt Q64331, whole entry: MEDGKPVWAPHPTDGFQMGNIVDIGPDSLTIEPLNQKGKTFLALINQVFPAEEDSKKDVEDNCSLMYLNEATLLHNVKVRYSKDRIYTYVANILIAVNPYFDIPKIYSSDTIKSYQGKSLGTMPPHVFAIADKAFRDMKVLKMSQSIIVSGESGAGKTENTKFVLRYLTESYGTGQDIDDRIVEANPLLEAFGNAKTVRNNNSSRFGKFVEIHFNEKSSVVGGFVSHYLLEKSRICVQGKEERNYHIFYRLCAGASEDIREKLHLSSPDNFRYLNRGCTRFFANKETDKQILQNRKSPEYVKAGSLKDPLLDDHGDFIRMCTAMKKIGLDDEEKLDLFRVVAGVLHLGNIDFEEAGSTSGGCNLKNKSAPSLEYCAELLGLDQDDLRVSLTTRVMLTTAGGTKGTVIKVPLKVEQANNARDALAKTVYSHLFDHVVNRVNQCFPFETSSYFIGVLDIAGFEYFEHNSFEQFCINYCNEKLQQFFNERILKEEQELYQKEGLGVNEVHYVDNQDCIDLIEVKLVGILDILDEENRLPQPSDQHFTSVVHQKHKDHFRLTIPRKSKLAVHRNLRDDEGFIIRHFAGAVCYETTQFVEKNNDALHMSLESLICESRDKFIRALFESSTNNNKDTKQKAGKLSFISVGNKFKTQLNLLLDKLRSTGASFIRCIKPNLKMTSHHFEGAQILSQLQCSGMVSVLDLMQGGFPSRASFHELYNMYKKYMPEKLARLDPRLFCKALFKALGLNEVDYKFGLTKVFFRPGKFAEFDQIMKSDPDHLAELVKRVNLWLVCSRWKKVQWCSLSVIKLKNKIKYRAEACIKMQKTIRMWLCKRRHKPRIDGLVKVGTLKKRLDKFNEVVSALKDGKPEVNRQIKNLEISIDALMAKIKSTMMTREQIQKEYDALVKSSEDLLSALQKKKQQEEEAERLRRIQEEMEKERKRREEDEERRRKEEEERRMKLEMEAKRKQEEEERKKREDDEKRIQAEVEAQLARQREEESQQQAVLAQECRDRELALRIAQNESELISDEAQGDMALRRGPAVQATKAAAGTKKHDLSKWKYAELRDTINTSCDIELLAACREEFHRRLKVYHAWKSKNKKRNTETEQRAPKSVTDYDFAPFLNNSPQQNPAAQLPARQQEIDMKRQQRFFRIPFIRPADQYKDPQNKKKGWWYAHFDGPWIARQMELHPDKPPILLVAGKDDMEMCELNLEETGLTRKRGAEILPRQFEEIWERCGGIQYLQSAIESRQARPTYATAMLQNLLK
UniProt Q69Z61: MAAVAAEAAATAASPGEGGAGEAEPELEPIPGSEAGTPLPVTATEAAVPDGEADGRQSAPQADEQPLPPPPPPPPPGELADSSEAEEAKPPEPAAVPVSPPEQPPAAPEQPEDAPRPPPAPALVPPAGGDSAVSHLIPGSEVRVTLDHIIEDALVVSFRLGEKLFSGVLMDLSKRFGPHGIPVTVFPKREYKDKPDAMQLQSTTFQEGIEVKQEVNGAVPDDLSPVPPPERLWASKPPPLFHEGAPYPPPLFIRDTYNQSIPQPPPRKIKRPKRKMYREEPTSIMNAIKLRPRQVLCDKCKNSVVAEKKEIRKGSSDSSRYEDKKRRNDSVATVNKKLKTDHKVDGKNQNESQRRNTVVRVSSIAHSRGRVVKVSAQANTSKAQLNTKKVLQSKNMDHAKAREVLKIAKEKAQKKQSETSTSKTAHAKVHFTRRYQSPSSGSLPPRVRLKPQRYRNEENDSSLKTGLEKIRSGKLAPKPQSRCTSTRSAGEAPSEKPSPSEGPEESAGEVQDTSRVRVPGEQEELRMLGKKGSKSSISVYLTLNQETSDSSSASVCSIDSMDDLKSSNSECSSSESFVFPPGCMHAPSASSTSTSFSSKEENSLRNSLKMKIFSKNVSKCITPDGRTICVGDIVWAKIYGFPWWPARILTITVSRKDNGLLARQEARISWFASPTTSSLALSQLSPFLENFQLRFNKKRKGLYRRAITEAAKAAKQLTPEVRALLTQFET
UniProt Q64467: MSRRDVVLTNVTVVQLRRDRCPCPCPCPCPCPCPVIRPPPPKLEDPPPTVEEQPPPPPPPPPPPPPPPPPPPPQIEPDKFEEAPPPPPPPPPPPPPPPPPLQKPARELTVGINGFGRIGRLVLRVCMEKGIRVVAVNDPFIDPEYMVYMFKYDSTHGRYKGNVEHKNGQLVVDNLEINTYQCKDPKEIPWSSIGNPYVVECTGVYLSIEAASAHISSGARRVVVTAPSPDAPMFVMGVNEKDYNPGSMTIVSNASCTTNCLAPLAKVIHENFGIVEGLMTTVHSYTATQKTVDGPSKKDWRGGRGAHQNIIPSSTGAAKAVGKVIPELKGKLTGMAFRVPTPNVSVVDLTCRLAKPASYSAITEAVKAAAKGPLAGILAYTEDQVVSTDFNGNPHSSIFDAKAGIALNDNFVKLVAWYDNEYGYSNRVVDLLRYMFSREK
UniProt Q62465: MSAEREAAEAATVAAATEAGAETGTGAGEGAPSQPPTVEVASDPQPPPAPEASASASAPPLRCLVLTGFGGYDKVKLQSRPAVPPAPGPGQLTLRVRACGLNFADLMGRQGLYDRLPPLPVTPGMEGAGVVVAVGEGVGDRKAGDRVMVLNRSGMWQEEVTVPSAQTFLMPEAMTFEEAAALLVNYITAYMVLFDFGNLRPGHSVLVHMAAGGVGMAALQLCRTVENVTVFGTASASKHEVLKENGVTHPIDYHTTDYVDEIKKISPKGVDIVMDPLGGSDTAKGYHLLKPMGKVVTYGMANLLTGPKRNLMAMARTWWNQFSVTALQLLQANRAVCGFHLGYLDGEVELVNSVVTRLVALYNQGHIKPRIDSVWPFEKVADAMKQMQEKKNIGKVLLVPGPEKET
UniProt Q61334: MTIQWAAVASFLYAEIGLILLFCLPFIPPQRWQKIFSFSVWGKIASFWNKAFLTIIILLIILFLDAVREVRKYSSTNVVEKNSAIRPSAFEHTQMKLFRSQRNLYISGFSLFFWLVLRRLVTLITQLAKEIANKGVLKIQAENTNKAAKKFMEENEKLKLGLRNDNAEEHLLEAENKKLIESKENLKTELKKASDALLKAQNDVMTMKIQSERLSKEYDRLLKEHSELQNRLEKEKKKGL

Compound: CN[C@@H]1C[C@H]2O[C@@](C)([C@@H]1OC)n1c3ccccc3c3c4c(c5c6ccccc6n2c5c31)C(=O)NC4 [staurosporine]
Assay: log2 fold change of tryptic peptide abundance, ligand vs vehicle (limited proteolysis) (log2 ratio); higher = more trypsin-susceptible (destabilized)
Conditions: ligand concentration: 20 uM; sample: mouse liver crude lysate; replicate design: treated separately

“UniProt Q62095 (peptide sequence: SGRKPILVATAVAAR, peptide start residue: 488)” gave a log2 fold change of -0.0896.

“UniProt Q64727 (peptide sequence: IRTNLLQVCERIPTISTQLK, peptide start residue: 977)” gave a log2 fold change of 0.604.

“UniProt Q61624 (peptide sequence: ESVLDKSDLKK, peptide start residue: 330)” showed a log2 fold change of -0.594.

“UniProt Q66T02 (peptide sequence: SLSLPALRPSGAGPPVSER, peptide start residue: 232)” gave a log2 fold change of -0.166.

Work on “UniProt Q64331 (peptide sequence: MSQSIIVSGESGAGKTENTK, peptide start residue: 143)” yielded a log2 fold change of -1.01.

With “UniProt Q69Z61 (peptide sequence: KLKTDHK, peptide start residue: 337)” the log2 fold change was -0.00728.

For “UniProt Q64467 (peptide sequence: AGIALNDNFVK, peptide start residue: 403)”, the log2 fold change was -0.22.

Work on “UniProt Q62465 (peptide sequence: LVALYNQGHIKPR, peptide start residue: 358)” yielded a log2 fold change of -0.365.

“UniProt Q62141 (peptide sequence: FLDHPEIYR, peptide start residue: 168)” showed a log2 fold change of 0.462.

“UniProt Q69ZA1 (peptide sequence: SPYSPVLR, peptide start residue: 398)” was tested, and the log2 fold change was -0.35.

With “UniProt Q61334 (peptide sequence: AQNDVMTMK, peptide start residue: 200)” the log2 fold change was 0.142.
